These results are taken from publication PMC9987799.

No constants are given. Whether binding was seen depends on the method and setting. For some of these results: A result given as binding can be weak or reduced; the word gives no strength. For some of these results: Sequences can lack the tags named with a protein. For some of these results: In cells and extracts the contact can be indirect.

In one assay the target is GFP-NLS-EDC4(630–1437). The experiment in a line: two-hybrid; fluorescence-based mammalian two-hybrid: bait EDC4 (or a fragment) fused to the SV40 NLS forms nuclear dots in transfected HEp-2 cells; prey scored by immunofluorescence for co-localisation in nuclear dots 24 h after transfection; three transfections, at least 30 cells each, mean +/- ….
The next assay has as its target GFP-EDC4(630–1437). The assay can be described thus: co-IP; HEK293 cells transfected; lysis in 25 mM Tris-HCl pH 7.4, 150 mM NaCl, 1 mM EDTA, 1% NP-40, 5% glycerol; GFP fusion proteins precipitated with GFP-Trap magnetic agarose; blot with anti-mCh.
Another assay has as its target GFP-EDC4. The assay is described as above.

B1: Myc-PATL1(398–770) (domain or fragment, UniProt Q86TB9 398-770)
chain: KDPYANLMLQREKDWVSKIQMMQLQSTDPYLDDFYYQNYFEKLEKLSAAEEIQGDGPKKERTKLITPQVAKLEHAYKPVQFEGSLGKLTVSSVNNPRKMIDAVVTSRSEDDETKEKQVRDKRRKTLVIIEKTYSLLLDVEDYERRYLLSLEEERPALMDDRKHKICSMYDNLRGKLPGQERPSDDHFVQIMCIRKGKRMVARILPFLSTEQAADILMTTARNLPFLIKKDAQDEVLPCLLSPFSLLLYHLPSVSITSLLRQLMNLPQSAATPALSNPHLTAVLQNKFGLSLLLILLSRGEDLQSSDPATESTQNNQWTEVMFMATRELLRIPQAALAKPISIPTNLVSLFSRYVDRQKLNLLETKLQLVQGIR
On to B1, for which the binding entry with GFP-NLS-EDC4(630–1437) is reported as “no binding”.

B2: mCh-XRN1(1232–1706) (domain or fragment, UniProt Q8IZH2 1232-1706)
chain: EFCNIWQSLQGSGKMQYFQPTIQEKGAVLPQEISQVNQHHKSGFNDNSVKYQQRKHDPHRKFKEECKSPKAECWSQKMSNKQPNSGIENFLASLNISKENEVQSSHHGEPPSEEHLSPQSFAMGTRMLKEILKIDGSNTVDHKNEIKQIANEIPVSSNRRDEYGLPSQPKQNKKLASYMNKPHSANEYHNVQSMDNMCWPAPSQIPPVSTPVTELSRICSLVGMPQPDFSFLRMPQTMTVCQVKLSNGLLVHGPQCHSENEAKEKAALFALQQLGSLGMNFPLPSQVFANYPSAVPPGTIPPAFPPPTGWDHYGSNYALGAANIMPSSSHLFGSMPWGPSVPVPGKPFHHTLYSGTMPMAGGIPGGVHNQFIPLQVTKKRVANKKNFENKEAQSSQATPVQTSQPDSSNIVKVSPRESSSASLKSSPIAQPASSFQVETASQGHSISHHKSTPISSSRRKSRKLAVNFGVSKPSE
In the case of B2, the binding result is “no binding” with GFP-EDC4(630–1437) and “binds” in the assay with GFP-EDC4.

B3: CCHCR1-Myc (protein, UniProt Q8TD31 1-782)
chain: MFPPSGSTGLIPPSHFQARPLSTLPRMAPTWLSDIPLVQPPGHQDVSERRLDTQRPQVTMWERDVSSDRQEPGRRGRSWGLEGSQALSQQAEVIVRQLQELRRLEEEVRLLRETSLQQKMRLEAQAMELEALARAEKAGRAEAEGLRAALAGAEVVRKNLEEGSQRELEEVQRLHQEQLSSLTQAHEEALSSLTSKAEGLEKSLSSLETRRAGEAKELAEAQREAELLRKQLSKTQEDLEAQVTLVENLRKYVGEQVPSEVHSQTWELERQKLLETMQHLQEDRDSLHATAELLQVRVQSLTHILALQEEELTRKVQPSDSLEPEFTRKCQSLLNRWREKVFALMVQLKAQELEHSDSVKQLKGQVASLQEKVTSQSQEQAILQRSLQDKAAEVEVERMGAKGLQLELSRAQEARRRWQQQTASAEEQLRLVVNAVSSSQIWLETTMAKVEGAAAQLPSLNNRLSYAVRKVHTIRGLIARKLALAQLRQESCPLPPPVTDVSLELQQLREERNRLDAELQLSARLIQQEVGRAREQGEAERQQLSKVAQQLEQELQQTQESLASLGLQLEVARQGQQESTEEAASLRQELTQQQELYGQALQEKVAEVETRLREQLSDTERRLNEARREHAKAVVSLRQIQRRAAQEKERSQELRRLQEEARKEEGQRLARRLQELERDKNLMLATLQQEGLLSRYKQQRLLTVLPSLLDKKKSVVSSPRPPECSASAPVAAAVPTRESIKGSLSVLLDDLQDLSEAISKEEAVCQGDNLDRCSSSNPQMSS
For the molecule B3, the binding result with GFP-NLS-EDC4(630–1437) was “binds”.
